Results as given in publication PMC6071992.
Read-outs that look alike come from different tables or passages of the source. Results are given in words; binding and its absence hold for the method and conditions named. For some of these results: A result given as binding can be weak or reduced; the word gives no strength. For some of these results: Tags and fused reporters may be left off the sequences shown. For some of these results: Binding seen in cells or lysates may run through a third protein. Blank lines part the entries; values can stand above or below the molecule they belong to.

Sequences of proteins named here, by UniProt entry; tags and fusion partners are left off.
UniProt Q9ULW0: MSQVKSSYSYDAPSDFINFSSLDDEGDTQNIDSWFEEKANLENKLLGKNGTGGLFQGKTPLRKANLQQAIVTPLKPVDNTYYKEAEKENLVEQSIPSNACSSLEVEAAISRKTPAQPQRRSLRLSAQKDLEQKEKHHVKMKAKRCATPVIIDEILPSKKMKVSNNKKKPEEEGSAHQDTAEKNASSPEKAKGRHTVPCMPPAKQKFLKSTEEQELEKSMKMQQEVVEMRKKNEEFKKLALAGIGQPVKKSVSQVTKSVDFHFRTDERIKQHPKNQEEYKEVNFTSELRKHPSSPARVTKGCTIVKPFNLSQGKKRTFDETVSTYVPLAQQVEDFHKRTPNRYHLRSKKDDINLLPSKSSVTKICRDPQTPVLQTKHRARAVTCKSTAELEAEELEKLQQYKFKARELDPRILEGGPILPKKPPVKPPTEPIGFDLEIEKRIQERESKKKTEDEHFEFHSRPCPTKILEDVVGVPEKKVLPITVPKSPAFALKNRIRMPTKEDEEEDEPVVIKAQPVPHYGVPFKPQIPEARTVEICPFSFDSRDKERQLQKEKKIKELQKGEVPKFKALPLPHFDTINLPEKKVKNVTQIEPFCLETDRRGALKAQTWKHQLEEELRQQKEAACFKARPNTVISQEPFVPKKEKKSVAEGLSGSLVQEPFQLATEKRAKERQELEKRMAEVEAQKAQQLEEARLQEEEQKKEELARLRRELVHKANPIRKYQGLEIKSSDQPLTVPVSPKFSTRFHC
UniProt Q9P2D1: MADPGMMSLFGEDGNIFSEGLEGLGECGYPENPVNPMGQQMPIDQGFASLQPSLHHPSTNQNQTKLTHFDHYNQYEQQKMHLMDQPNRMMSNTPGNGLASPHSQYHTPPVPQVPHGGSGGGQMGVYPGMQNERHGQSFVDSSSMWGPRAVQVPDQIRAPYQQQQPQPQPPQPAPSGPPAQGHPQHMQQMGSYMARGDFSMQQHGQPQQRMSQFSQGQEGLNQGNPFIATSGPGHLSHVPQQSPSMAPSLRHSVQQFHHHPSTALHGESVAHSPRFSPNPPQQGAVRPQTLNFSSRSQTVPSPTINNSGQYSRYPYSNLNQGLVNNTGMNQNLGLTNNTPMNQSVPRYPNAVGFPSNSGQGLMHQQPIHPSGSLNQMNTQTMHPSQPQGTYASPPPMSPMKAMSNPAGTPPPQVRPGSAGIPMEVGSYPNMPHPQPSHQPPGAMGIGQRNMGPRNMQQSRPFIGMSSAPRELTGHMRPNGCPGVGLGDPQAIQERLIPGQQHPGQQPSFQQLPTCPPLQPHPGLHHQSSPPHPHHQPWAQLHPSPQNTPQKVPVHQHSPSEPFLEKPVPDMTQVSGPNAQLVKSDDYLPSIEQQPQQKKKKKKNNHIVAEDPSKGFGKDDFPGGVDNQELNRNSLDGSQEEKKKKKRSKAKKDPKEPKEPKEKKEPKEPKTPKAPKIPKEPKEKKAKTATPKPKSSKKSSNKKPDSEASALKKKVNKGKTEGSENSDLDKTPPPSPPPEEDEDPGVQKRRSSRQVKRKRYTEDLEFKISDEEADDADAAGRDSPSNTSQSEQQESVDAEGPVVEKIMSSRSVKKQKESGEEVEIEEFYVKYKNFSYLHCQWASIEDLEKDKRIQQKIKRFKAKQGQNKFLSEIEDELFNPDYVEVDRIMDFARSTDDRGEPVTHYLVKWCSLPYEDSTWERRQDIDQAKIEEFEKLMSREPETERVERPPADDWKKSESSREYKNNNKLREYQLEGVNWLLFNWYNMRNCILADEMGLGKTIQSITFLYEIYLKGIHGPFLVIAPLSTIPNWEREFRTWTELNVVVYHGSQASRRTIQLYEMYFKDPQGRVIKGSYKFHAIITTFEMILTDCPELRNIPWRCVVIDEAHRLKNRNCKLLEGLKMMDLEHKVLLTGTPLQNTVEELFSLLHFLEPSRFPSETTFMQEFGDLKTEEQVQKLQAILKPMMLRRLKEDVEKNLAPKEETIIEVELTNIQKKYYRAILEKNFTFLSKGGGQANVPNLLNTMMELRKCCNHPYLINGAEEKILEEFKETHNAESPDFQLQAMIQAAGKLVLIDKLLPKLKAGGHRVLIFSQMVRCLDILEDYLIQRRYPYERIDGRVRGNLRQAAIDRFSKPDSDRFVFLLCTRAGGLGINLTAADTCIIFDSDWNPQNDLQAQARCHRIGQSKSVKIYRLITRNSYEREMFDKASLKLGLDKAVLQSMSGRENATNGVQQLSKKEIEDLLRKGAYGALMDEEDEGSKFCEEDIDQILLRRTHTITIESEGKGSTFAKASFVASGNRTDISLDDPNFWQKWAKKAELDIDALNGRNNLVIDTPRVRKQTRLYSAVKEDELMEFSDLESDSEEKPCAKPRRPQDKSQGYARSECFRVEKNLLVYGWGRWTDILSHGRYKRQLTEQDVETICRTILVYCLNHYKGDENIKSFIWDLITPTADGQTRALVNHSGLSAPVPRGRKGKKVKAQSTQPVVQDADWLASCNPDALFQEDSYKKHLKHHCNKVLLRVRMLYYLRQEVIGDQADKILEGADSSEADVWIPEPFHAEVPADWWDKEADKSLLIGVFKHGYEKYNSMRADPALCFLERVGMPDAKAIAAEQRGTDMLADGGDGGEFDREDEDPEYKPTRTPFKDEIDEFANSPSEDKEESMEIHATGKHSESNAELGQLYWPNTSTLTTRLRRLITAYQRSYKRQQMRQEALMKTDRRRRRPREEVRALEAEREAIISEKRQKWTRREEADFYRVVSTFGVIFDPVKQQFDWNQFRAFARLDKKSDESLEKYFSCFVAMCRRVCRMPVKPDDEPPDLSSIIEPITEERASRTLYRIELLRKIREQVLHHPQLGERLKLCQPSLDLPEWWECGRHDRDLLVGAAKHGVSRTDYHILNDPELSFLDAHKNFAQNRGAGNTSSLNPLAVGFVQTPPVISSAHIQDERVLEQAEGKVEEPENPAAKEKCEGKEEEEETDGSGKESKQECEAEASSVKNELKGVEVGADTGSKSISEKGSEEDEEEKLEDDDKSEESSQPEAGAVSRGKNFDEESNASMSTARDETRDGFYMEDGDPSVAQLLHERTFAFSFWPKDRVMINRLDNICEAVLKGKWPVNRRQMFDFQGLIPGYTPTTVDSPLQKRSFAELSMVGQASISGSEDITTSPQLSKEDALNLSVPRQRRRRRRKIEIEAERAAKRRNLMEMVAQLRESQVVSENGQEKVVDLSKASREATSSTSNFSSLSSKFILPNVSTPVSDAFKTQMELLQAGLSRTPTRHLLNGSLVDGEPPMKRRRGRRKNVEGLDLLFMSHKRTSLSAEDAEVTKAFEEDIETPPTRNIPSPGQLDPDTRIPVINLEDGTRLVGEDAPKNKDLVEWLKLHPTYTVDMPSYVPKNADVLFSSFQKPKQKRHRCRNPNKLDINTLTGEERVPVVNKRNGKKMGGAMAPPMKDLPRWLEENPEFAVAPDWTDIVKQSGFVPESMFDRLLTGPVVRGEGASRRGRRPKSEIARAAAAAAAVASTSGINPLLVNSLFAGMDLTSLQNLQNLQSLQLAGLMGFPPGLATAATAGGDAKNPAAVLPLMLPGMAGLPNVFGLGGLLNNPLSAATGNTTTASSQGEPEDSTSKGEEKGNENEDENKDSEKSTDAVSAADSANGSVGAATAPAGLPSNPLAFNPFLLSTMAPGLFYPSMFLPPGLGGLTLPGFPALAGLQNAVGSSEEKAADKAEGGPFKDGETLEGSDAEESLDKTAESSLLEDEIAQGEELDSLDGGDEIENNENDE

How the values were obtained:
[1] = molecular target: T1, HA-tagged full-length TBX18 protein (mouse) (UniProt Q9EPZ6); assay: nuclear recruitment assay (immunofluorescence); modified assay: 293 cells co-transfected with full-length (nuclear) TBX18 and a candidate that lies outside the nucleus; recruitment of the candidate into the nucleus read by immunofluorescence against the tags
T1 sequence: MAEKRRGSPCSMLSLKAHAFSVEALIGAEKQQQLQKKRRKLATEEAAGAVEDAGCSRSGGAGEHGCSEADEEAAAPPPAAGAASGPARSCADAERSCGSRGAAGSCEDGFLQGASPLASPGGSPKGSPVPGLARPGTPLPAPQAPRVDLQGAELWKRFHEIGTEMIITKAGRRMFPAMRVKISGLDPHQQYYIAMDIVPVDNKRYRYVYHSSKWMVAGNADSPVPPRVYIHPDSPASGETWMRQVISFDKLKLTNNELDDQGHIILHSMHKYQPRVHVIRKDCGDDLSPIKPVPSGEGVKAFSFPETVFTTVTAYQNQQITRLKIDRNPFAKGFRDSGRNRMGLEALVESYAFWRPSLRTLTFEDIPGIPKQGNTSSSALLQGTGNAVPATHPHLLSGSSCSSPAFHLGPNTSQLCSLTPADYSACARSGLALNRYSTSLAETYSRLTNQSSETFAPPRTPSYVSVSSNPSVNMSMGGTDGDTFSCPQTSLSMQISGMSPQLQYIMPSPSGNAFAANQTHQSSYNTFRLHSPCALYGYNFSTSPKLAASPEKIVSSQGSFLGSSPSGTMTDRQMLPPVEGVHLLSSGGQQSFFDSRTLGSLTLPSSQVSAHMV

[2] = molecular target: T2, GST-TBX18 C-terminal region (aa 336-613) (mouse) (UniProt Q9EPZ6); assay: pull-down; GST-TBX18 domain fusion proteins on glutathione beads incubated 2 h with NP-40 extracts of 293 cells transfected with MYC- or HA-tagged candidates; washed 3 times with pull-down buffer (20 mM HEPES pH 7.9, 100 mM NaCl, 10 mM KCl, 5 mM MgCl2, 0.5 mM EDTA, 5% glycerol, 0.05% Triton X-100, 1 mM DTT); Western blot against the tags; only the target purified
T2 sequence: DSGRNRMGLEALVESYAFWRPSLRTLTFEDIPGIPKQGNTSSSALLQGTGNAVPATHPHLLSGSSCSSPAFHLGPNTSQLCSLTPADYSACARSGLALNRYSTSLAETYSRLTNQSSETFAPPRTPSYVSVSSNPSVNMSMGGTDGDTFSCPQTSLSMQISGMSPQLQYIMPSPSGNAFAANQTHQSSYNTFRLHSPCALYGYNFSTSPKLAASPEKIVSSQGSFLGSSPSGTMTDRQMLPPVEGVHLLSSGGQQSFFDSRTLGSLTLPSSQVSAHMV

[3] = molecular target: T3, GST-TBX18 N-terminal plus T-box (aa 1-345) (mouse) (UniProt Q9EPZ6); assay: as above
T3 sequence: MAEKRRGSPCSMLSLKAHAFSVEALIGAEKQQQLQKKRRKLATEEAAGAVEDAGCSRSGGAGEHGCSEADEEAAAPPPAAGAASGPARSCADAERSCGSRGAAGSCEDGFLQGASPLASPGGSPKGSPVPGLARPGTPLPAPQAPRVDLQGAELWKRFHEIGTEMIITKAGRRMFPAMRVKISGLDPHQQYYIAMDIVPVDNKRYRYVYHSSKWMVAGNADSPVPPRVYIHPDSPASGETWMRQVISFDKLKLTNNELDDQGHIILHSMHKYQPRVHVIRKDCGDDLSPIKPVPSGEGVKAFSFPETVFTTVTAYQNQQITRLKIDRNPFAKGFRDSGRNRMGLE

[4] = molecular target: T4, GST-TBX18 N-terminal region (aa 1-157) (mouse) (UniProt Q9EPZ6); assay: as above
T4 sequence: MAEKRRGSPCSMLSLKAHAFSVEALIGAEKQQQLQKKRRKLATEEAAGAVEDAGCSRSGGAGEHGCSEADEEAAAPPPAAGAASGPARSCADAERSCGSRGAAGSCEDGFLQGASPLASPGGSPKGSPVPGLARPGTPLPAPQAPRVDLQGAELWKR

[5] = molecular target: T5, GST-TBX18 T-box (aa 148-345) (mouse) (UniProt Q9EPZ6); assay: as above
T5 sequence: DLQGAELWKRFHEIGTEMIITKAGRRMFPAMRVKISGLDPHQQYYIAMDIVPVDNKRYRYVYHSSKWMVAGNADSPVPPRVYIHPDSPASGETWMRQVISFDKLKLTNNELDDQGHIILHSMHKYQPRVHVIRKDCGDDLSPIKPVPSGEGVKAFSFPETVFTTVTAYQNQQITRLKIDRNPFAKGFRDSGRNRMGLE

[6] = molecular target: HA-tagged TBX18 lacking the nuclear localization signal (mouse) (UniProt Q9EPZ6); assay: nuclear recruitment assay (immunofluorescence); 293 cells co-transfected with TBX18ΔNLS (cytoplasmic) and a nuclear candidate protein; nuclear translocation of TBX18ΔNLS read by immunofluorescence against the tags after 2 days
[7] = molecular target: MYC-tagged TBX18ΔNLS (mouse) (UniProt Q9EPZ6); assay: as above
[8] = molecular target: HA-tagged TBX18 lacking the nuclear localization signal (mouse) (UniProt Q9EPZ6); assay: as above; remark: listed apart in the source

binding [1]: binds
binding [2]: no binding
binding [3]: no binding
binding [4]: no binding
binding [5]: no binding
Molecule: MYC-tagged RCOR3

binding [6]: binds
Molecule: MYC-tagged TPX2 (from UniProt Q9ULW0 1-747)

binding [4]: binds weakly
binding [5]: binds
Molecule: MYC-tagged GAR1

binding [5]: binds
Molecule: MYC-tagged IKZF2

binding [5]: binds
Molecule: HA-tagged SBNO2

binding [4]: binds
binding [5]: binds weakly
Molecule: MYC-tagged NCOA5

binding [2]: no binding
binding [3]: no binding
binding [4]: no binding
binding [5]: no binding
Molecule: MYC-tagged SSXB2

binding [2]: no binding
binding [3]: no binding
binding [4]: no binding
binding [5]: no binding
Molecule: MYC-tagged SUV39H2

binding [7]: binds
Molecule: HA-tagged CHD7 (from UniProt Q9P2D1 1-2997)

binding [8]: binds
B1: MYC-tagged B9D2 (protein, UniProt Q9BPU9 1-175)
chain: MAEVHVIGQIIGASGFSESSLFCKWGIHTGAAWKLLSGVREGQTQVDTPQIGDMAYWSHPIDLHFATKGLQGWPRLHFQVWSQDSFGRCQLAGYGFCHVPSSPGTHQLACPTWRPLGSWREQLARAFVGGGPQLLHGDTIYSGADRYRLHTAAGGTVHLEIGLLLRNFDRYGVEC
